Results on four substances are retold here after article PMC12097129.

By UniProt entry, the sequences of proteins in these tests, tags left out. Where a name states a change or a piece, a line headed by the entry shows the natural chain unless it says otherwise.
UniProt A2A484: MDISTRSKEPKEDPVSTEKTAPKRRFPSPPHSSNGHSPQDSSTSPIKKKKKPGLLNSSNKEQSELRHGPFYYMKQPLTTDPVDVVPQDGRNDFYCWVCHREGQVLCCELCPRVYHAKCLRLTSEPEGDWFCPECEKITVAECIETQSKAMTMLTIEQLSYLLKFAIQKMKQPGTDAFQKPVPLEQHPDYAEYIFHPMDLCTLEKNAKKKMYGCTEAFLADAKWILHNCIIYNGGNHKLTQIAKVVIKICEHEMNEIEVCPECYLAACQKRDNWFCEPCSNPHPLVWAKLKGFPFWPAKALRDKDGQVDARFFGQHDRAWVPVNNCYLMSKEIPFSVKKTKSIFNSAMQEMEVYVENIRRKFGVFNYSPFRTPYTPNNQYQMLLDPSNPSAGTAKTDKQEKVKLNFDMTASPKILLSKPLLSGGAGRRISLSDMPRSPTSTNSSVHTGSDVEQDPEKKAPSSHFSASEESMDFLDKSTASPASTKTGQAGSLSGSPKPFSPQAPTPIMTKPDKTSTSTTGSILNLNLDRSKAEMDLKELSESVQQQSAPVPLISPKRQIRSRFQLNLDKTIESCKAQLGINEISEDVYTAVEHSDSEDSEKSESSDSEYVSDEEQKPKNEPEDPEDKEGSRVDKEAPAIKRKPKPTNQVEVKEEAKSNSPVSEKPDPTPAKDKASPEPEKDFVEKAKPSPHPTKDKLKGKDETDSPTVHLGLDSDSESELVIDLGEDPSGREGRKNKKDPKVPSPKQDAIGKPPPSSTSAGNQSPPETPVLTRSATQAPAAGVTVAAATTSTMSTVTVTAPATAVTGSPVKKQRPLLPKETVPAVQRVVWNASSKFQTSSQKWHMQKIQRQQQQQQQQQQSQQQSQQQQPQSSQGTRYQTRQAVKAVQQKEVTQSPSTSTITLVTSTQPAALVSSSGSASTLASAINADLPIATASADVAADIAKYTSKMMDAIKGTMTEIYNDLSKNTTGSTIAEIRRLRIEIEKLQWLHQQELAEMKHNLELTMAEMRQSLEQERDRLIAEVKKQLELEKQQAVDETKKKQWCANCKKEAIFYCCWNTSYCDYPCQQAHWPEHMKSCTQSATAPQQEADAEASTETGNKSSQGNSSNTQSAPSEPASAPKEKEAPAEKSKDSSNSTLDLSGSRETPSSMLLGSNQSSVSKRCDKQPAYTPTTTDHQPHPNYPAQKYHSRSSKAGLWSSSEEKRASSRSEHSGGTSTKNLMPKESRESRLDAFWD
UniProt Q61188: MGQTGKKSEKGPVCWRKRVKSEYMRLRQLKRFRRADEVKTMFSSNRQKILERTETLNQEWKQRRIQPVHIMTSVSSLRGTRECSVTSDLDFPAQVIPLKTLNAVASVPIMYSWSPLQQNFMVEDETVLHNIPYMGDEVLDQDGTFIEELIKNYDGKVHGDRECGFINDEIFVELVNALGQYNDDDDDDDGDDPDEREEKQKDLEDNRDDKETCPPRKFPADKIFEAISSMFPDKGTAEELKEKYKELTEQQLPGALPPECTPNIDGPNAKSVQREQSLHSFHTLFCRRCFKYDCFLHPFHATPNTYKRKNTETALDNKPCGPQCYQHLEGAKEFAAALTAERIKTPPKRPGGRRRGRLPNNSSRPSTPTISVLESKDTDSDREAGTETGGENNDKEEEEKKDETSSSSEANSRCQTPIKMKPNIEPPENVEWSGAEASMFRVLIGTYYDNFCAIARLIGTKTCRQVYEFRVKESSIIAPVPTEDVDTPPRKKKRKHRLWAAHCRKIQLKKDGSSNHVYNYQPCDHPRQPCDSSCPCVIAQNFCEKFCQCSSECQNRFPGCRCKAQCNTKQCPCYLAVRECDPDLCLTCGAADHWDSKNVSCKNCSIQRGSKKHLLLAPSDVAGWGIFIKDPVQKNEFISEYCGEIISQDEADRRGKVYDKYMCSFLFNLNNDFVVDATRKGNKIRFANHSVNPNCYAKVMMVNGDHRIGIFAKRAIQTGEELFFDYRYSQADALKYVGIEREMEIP
UniProt Q80U70: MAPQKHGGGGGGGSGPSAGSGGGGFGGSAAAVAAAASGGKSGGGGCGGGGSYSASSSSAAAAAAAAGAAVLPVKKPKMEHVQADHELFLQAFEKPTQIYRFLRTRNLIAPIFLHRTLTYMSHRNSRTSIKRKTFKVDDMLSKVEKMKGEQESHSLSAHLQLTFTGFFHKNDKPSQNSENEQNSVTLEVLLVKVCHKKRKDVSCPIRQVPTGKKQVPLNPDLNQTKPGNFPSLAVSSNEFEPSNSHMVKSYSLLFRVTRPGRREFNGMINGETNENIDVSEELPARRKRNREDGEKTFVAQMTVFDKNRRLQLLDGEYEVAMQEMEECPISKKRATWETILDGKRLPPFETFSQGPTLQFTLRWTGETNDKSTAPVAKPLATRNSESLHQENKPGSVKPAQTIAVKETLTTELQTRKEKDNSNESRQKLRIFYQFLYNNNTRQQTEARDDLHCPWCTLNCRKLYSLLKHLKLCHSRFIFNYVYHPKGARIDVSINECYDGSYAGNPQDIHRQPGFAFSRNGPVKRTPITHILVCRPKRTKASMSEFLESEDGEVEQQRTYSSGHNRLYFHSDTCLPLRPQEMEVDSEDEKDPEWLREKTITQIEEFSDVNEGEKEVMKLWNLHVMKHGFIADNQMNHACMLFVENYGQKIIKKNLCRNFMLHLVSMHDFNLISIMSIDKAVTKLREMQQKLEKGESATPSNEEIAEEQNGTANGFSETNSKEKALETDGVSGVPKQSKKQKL
UniProt Q921E6: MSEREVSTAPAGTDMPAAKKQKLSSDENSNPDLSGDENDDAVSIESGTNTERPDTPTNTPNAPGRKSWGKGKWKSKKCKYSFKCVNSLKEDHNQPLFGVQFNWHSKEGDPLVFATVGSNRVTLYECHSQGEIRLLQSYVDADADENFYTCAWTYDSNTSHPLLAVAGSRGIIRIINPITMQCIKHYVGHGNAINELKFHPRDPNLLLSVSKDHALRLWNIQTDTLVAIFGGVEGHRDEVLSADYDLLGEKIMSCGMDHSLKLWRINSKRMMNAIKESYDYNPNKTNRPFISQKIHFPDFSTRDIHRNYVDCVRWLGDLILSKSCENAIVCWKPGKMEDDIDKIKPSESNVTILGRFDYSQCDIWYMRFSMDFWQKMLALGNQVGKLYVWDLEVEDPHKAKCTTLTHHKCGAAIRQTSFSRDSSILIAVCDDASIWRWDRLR

Results are given in words; binding and its absence hold for the method and conditions named. In cells and extracts the contact can be indirect. Binding calls can cover weak binding; strength is not graded here.

In assay [1] the target is Receptor for Activated C-kinase 7 (RACK7), endogenous mouse (mouse (endogenous in neonatal forebrain)) (UniProt A2A484). Put plainly: co-IP; IP with 2 ug anti-RACK7 (control IgG beside it) and rProtein A/G beads from dialysed nuclear extract of WT neonatal mouse forebrain; wash buffer 50 mM Tris-HCl pH 7.9, 100 mM KCl, 0.1% NP-40; immunoblot.
The target of assay [2] is Enhancer of Zeste Homolog 2 (EZH2), endogenous mouse (mouse (endogenous in neonatal forebrain)) (UniProt Q61188). Nature of the assay: co-IP; IP with anti-SUZ12, anti-EZH2 or anti-EED antibodies from WT neonatal mouse forebrain; immunoblot for RACK7.
Assay [3] addresses Suppressor of Zeste 12 homolog (SUZ12), endogenous mouse (mouse (endogenous in neonatal forebrain)) (UniProt Q80U70). Described as above.
Assay [4] addresses embryonic ectoderm development (EED), endogenous mouse (mouse (endogenous in neonatal forebrain)) (UniProt Q921E6). The assay is described as above.

Consider “Suppressor of Zeste 12 homolog (SUZ12), endogenous mouse (from UniProt Q80U70 1-741)”, for which the binding entry in assay [1] was “binds”. Consider “Receptor for Activated C-kinase 7 (RACK7), endogenous mouse (from UniProt A2A484)”, for which the binding entry in assay [2], in assay [3] and in assay [4] was “binds” in each case. With “embryonic ectoderm development (EED), endogenous mouse (from UniProt Q921E6 1-441)”, the binding entry in assay [1] is “binds”. Regarding “Enhancer of Zeste Homolog 2 (EZH2), endogenous mouse (from UniProt Q61188 1-746)”, the binding result in assay [1] is given as “binds”.
